37 targets from the supplement of paper PMC11006884 can be followed below.

Sequences of proteins named here, by UniProt entry; tags and fusion partners are left off. A change or cut given only in a name is not applied to a line headed by its entry.
UniProt Q9P2R3: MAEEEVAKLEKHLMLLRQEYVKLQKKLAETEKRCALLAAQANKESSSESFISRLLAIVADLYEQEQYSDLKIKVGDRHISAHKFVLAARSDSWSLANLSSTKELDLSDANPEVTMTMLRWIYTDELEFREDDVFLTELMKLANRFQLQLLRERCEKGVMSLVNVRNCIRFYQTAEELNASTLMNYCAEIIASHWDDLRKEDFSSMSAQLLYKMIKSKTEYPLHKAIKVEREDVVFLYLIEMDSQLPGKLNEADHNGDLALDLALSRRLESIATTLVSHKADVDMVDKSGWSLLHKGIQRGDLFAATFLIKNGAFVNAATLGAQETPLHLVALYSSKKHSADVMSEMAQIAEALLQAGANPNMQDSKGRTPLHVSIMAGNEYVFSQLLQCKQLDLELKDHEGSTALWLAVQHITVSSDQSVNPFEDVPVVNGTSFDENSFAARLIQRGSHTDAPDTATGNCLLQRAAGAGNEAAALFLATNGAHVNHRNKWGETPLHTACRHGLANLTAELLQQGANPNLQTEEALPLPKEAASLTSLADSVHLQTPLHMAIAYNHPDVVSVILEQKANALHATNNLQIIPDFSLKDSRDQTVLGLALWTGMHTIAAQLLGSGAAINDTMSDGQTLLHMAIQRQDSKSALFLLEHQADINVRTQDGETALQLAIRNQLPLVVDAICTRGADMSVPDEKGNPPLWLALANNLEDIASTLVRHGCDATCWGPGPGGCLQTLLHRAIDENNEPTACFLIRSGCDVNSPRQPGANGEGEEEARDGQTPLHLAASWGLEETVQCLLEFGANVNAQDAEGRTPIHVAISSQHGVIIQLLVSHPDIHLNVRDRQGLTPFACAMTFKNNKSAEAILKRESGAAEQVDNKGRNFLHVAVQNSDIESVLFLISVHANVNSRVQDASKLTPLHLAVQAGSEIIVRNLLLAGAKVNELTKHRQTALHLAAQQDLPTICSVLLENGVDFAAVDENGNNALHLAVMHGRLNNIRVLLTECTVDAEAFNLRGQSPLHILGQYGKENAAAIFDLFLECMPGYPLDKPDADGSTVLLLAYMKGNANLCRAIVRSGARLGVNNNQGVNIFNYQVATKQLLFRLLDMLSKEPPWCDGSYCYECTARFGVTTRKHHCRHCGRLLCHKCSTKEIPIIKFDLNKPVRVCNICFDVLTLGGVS
UniProt Q9NYH9: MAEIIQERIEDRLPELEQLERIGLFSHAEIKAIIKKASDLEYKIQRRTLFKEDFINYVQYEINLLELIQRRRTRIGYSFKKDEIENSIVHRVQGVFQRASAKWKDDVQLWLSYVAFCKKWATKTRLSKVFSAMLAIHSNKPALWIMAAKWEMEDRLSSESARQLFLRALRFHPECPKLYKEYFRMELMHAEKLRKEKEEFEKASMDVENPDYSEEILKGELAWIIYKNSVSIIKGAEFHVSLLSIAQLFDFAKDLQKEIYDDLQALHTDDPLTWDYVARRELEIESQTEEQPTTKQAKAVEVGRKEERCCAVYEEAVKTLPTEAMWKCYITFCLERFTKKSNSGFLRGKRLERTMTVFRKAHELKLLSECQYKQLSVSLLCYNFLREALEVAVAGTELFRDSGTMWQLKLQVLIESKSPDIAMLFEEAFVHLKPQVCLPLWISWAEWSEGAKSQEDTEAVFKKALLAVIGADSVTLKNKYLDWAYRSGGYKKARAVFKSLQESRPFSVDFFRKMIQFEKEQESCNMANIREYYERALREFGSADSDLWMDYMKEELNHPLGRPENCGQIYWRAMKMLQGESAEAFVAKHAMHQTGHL
UniProt Q9P1F3: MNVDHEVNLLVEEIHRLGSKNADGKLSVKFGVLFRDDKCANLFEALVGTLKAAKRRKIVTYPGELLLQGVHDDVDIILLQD
UniProt Q9UBL3, whole entry, looked up: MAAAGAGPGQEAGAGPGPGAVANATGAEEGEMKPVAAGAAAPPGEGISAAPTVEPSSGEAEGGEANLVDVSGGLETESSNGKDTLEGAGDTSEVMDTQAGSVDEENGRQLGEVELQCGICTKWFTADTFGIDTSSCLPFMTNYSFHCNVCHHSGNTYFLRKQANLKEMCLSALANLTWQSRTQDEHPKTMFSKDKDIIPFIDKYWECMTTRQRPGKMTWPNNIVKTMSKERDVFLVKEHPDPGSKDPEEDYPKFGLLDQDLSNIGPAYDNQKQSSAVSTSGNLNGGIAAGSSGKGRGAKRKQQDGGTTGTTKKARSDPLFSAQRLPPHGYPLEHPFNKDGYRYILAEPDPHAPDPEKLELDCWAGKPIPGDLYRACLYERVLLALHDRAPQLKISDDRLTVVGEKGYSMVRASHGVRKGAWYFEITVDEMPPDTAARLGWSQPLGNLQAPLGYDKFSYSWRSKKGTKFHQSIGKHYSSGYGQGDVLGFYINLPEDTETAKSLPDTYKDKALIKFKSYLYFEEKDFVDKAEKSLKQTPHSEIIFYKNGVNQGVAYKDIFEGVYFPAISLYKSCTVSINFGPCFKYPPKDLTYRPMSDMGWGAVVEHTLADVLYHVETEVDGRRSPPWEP
UniProt Q9NW64: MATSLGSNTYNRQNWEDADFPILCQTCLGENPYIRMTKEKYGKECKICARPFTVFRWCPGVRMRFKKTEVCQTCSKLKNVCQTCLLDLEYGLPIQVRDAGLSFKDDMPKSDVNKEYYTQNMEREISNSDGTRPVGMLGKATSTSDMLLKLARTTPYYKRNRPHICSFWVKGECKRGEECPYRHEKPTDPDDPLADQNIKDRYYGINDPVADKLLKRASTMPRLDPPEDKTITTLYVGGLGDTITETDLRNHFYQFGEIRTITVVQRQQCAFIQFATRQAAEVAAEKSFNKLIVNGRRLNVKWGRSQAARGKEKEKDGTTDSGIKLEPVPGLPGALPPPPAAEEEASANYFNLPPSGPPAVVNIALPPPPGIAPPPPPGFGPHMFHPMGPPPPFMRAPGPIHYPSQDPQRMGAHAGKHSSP
UniProt Q9NVP1: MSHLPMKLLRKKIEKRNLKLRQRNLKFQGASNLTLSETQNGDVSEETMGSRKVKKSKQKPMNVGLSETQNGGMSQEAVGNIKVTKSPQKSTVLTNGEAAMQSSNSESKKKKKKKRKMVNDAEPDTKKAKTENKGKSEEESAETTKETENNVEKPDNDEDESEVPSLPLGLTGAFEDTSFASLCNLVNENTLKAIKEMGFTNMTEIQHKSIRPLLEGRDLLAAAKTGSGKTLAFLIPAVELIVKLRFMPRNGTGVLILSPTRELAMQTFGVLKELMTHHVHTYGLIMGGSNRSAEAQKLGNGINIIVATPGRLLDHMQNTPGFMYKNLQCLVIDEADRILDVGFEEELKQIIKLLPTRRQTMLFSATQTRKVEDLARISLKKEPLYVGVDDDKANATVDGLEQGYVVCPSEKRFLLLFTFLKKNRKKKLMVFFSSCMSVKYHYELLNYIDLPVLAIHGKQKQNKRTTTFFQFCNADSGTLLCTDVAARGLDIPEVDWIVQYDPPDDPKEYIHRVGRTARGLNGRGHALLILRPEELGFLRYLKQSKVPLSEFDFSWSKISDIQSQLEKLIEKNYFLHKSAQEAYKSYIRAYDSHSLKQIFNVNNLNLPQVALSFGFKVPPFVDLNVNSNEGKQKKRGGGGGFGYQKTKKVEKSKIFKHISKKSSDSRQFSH
UniProt Q9UGI8: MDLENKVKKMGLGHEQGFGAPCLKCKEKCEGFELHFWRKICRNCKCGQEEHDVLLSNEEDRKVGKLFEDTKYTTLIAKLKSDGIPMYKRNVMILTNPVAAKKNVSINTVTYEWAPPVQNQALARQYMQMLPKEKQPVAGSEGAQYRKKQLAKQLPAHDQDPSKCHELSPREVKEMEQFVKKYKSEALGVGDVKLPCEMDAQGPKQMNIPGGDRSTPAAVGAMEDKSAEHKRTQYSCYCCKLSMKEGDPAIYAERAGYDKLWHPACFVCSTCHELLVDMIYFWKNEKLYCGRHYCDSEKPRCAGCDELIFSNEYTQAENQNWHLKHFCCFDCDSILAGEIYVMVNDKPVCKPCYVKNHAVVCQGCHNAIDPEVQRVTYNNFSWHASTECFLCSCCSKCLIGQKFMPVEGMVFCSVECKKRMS
UniProt Q9NUQ9: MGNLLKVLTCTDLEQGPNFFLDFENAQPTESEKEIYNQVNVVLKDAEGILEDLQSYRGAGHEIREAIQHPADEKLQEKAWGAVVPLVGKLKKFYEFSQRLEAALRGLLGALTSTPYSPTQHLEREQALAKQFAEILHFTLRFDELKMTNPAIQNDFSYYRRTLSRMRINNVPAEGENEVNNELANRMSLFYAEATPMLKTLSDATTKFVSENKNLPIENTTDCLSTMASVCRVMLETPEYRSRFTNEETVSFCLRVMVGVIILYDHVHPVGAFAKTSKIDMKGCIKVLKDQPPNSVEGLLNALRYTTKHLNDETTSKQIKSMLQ
UniProt Q9NWR8: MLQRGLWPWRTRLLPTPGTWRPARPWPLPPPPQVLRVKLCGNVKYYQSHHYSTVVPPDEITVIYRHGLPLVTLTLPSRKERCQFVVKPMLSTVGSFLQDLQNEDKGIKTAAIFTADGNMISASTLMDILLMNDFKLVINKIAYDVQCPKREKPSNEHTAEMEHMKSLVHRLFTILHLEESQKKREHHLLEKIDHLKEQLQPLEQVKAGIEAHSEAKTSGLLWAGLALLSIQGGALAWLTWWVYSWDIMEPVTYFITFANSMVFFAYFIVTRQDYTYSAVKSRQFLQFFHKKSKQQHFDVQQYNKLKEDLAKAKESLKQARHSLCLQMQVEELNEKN
UniProt Q9NVI1: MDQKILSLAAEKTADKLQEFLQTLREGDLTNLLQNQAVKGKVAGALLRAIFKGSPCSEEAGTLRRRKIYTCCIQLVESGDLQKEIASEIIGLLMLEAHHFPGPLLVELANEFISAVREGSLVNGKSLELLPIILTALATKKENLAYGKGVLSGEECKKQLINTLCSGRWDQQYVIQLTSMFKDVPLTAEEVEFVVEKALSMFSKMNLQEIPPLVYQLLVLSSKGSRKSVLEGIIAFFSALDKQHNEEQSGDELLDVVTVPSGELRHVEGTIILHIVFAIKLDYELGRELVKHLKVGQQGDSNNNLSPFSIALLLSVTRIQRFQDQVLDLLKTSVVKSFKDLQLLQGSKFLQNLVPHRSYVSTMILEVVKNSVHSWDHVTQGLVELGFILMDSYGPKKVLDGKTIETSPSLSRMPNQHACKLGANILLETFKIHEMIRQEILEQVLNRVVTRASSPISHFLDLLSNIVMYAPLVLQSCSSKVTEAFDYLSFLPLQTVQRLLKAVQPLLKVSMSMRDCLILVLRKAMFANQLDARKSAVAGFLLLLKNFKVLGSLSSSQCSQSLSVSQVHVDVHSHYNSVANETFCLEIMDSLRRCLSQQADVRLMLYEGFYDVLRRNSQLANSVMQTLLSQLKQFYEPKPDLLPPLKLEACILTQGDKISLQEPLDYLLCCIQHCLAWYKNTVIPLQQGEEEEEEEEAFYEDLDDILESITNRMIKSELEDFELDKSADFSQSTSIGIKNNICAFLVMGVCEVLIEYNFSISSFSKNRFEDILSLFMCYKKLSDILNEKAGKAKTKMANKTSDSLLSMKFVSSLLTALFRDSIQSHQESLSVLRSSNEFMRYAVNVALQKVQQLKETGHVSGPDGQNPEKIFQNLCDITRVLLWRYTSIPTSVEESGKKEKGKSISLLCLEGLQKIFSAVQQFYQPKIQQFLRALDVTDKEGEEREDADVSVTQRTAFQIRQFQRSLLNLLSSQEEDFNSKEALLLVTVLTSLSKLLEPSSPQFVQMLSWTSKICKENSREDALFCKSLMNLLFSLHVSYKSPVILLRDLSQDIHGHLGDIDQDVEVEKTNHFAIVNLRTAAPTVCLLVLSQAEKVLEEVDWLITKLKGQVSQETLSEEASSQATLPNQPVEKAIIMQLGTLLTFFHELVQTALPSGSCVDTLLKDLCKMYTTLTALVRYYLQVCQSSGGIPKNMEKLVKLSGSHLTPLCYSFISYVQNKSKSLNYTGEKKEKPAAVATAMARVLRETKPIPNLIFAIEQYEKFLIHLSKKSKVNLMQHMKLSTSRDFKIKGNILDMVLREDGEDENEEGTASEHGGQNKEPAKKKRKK
UniProt Q9NVI7: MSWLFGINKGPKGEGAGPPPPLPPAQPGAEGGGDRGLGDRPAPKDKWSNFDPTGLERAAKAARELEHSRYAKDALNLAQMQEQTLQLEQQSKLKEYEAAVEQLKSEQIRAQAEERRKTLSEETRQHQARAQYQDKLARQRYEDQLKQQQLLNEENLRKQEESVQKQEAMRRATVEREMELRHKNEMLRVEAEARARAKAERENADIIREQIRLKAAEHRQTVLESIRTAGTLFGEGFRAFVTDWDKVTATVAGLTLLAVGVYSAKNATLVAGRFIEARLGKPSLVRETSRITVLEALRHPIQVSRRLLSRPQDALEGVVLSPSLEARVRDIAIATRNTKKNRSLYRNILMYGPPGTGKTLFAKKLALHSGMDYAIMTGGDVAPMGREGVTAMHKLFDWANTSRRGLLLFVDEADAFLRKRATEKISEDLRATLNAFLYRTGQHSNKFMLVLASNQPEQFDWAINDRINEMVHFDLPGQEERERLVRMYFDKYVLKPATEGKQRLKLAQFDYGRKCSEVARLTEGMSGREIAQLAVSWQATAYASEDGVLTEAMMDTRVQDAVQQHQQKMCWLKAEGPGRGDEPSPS

This is a selection; strong and weak results do not stand in their true shares.

Compound in this experiment: COC(=O)C#Cc1ccccc1 [methyl 3-phenylpropiolate]
Description: log2 ratio of iodoacetamide-alkyne labeling of the cysteine site, DMSO over compound (competition); higher = stronger covalent engagement of the cysteine by the compound, active = 1 or more. The conditions noted are these: 500 µM; treatment time 1 h; system: HEK293T cell lysate. A digest of the protocol: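 After 1 h at ambient temperature with vehicle or electrophile (500 µM), HEK293T lysate (2 mg/mL) was labelled for 1 h with iodoacetamide alkyne and clicked to sCIP-TMT reagents. Pooled samples were trypsin-digested overnight at 37 °C, streptavidin-enriched, acid-eluted and analysed by Orbitrap Eclipse LC-MS/MS with FAIMS, then quantified in FragPipe over three replicates with duplicate channels. A cysteine's log2 competition ratio is its mean control-channel over mean compound-channel reporter intensity. Cysteines quantified in only one replicate were not included.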
For the target ANKIB1 C662 (UniProt Q9P2G1), the “log2 ratio of iodoacetamide-alkyne labeling” value (shortened to “log2 ratio”) was inactive: 0.119.

Consider CGGBP1 C111 (UniProt Q9UFW8), for which the “log2 ratio” value is inactive: 0.131.

Take CTTNBP2NL C312 (UniProt Q9P2B4): the “log2 ratio” value was inactive: 0.348.

For LARS C527 (UniProt Q9P2J5), the “log2 ratio” value is inactive: -0.28.

Turning to STK39 C237 (UniProt Q9UEW8), the “log2 ratio” value was inactive: 0.227.

For ANKFY1 C1156 (UniProt Q9P2R3), the “log2 ratio” value is inactive: 0.475.

UTP6 C175 (UniProt Q9NYH9): the “log2 ratio” value is active: 1.62.

THG1L C279 (UniProt Q9NWX6): the “log2 ratio” value is inactive: 0.394.

In the case of RBM28 C378 (UniProt Q9NW13), the “log2 ratio” value was inactive: 0.31.

As to DDX19A C224 (UniProt Q9NUU7), the “log2 ratio” value was inactive: 0.0835.

Regarding UniProt Q9NVH0_C109, the “log2 ratio” value was inactive: 0.141.

On to DIP2B C333 (UniProt Q9P265), for which the “log2 ratio” value is inactive: 0.345.

In the case of BCLAF1 C242 (UniProt Q9NYF8), the “log2 ratio” value was inactive: -0.282.

Take FAM120A C892 (UniProt Q9NZB2): the “log2 ratio” value is active: 1.45.

As for UniProt Q9P1F3_C39, the “log2 ratio” value was inactive: 0.0685.

For ASH2L C362 (UniProt Q9UBL3), the “log2 ratio” value was inactive: 0.138.

UniProt Q9NW64_C27: the “log2 ratio” value is inactive: -0.000923.

Regarding DDX18 C329 (UniProt Q9NVP1), the “log2 ratio” value was inactive: 0.256.

As to IMP3 C107 (UniProt Q9NV31), the “log2 ratio” value is inactive: 0.679.

Consider SEC63 C295 (UniProt Q9UGP8), for which the “log2 ratio” value was inactive: 0.629.

On to SMPD4 C614 (UniProt Q9NXE4), for which the “log2 ratio” value is inactive: -0.437.

Regarding TES C164 (UniProt Q9UGI8), the “log2 ratio” value was inactive: -0.12.

Consider FAM49B C10 (UniProt Q9NUQ9), for which the “log2 ratio” value was inactive: -0.0928.

Consider CPSF2 C577 (UniProt Q9P2I0), for which the “log2 ratio” value was inactive: 0.0423.

With UniProt Q9NWR8_C324, the “log2 ratio” value was active: 1.65.

On to ANKFY1 C742 (UniProt Q9P2R3), for which the “log2 ratio” value is inactive: 0.439.

For FANCI C594 (UniProt Q9NVI1), the “log2 ratio” value is inactive: 0.0765.

On to ATAD3A C563 (UniProt Q9NVI7), for which the “log2 ratio” value is inactive: 0.273.

On to UniProt Q9NYL2_C285, for which the “log2 ratio” value is inactive: 0.195.

Regarding KCTD5 C6 (UniProt Q9NXV2), the “log2 ratio” value is inactive: 0.701.

As to RBM28 C71 (UniProt Q9NW13), the “log2 ratio” value is inactive: 0.107.

For MPP6 C432 (UniProt Q9NZW5), the “log2 ratio” value was inactive: 0.479.

On to PHRF1 C797 (UniProt Q9P1Y6), for which the “log2 ratio” value is inactive: 0.306.

As to UniProt Q9NVH0_C227, the “log2 ratio” value is inactive: 0.265.

For the target ITSN2 C810 (UniProt Q9NZM3), the “log2 ratio” value was inactive: 0.0149.

UniProt Q9UBF8_C89: the “log2 ratio” value is inactive: 0.445.

In the case of FANCI C875 (UniProt Q9NVI1), the “log2 ratio” value is inactive: 0.245.
